Reference: US8518412B2 (Senju Pharmaceutical Co, Ltd., priority 2009, dated 2013)

Test: peptide made by a vendor (Fmoc solid-phase peptide synthesis; HBTU)
Conditions: whole synthesis, HPLC A/A %

Pyr Lac50-83
final HPLC purity: >92%

Pyr Lac50-94
final HPLC purity: >90%
